Structures can show the parent of a compound that is named as a salt. ± gives the standard deviation of the averaged measurements. Some of the results follow. Baselines shift from plate to plate; read single values as rough.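 The cells are a mouse kidney inner medullary collecting duct line, silenced either for the ciliary gene Rpgrip1l or with a non-targeting control siRNA. Primary scores are means of two runs against batch controls; in the follow-up screen a hit raised cilia by at least 2 over its matching control, and compounds dropping cell number by 2 or more were excluded. The cells are a mouse kidney inner medullary collecting duct line, silenced either for the ciliary gene Rpgrip1l or with a non-targeting control siRNA.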
Columns and labels:
[1] = tested on: mIMCD3; assay: robust z score of cell number vs plate controls; higher = more cells (less cytotoxic); conditions: 10 µM, 48 h
[2] = tested on: mIMCD3; assay: robust z cell number difference from vehicle control (robust z score difference); higher = more cells; conditions: 10 µM, 48 h
[3] = tested on: mIMCD3; assay: robust z score of cilia incidence (% cells with single cilium) vs plate controls; higher = more ciliated cells; conditions: 10 µM; 48 h; siRNA: siScr
[4] = tested on: mIMCD3; assay: robust z cilia incidence difference from vehicle control (robust z score difference); higher = more ciliated cells; conditions: 10 µM; 48 h; siRNA: siScr
[5] = tested on: mIMCD3; assay: robust z cilia incidence difference from vehicle control (robust z score difference); higher = more ciliated cells (rescue); conditions: 10 µM; 48 h; siRNA: siRpgrip1l
[6] = tested on: mIMCD3; assay: robust z score of cilia incidence (% cells with single cilium) vs plate controls; higher = more ciliated cells (rescue of cilia loss); conditions: 10 µM; 48 h; siRNA: siRpgrip1l

Row | Compound | robust z score of cell number ([1]; siRNA: siRpgrip1l) | robust z score of cell number ([1]; siRNA: siScr) | robust z cell number difference ([2]; siRNA: siRpgrip1l) | robust z cell number difference ([2]; siRNA: siScr) | robust z score of cilia incidence [3] | robust z cilia incidence difference [4] | robust z cilia incidence difference [5] | robust z score of cilia incidence [6]
1 | CC(C)NC[C@@H](O)COc1cccc2ccccc12 [(R)-(+)-Propranolol hydrochloride] | 1.58 ± 0.57 | 0.92 ± 3.2 | -8.69 | -5.97 ± 1.6 | 4.17 ± 1.1 | -0.998 ± 0.045 | -14.2 | -0.714 ± 2.6
2 | Cc1cc(C(C)(C)C)c(O)c(C)c1CC1=NCCN1 [Oxymetazoline hydrochloride] | -0.944 ± 2.5 | -0.109 ± 3.1 | -13.6 | -7.09 ± 11 | 6.97 ± 2.4 | -3.06 ± 7 | -10.8 | -6.88 ± 4.5
3 | COC(=O)[C@H]1[C@H]2C[C@@H]3c4[nH]c5cc(OC)ccc5c4CCN3C[C@H]2C[C@@H](OC(=O)c2cc(OC)c(OC)c(OC)c2)[C@@H]1OC [Reserpine] | -5.39 ± 7.3 | -3.01 ± 3.4 | -12.6 | -5.71 ± 8.4 | -12.6 ± 1.8 | -3.97 ± 9.4 | -27.1 | -9.79 ± 4
4 | CS(=O)(=O)Nc1c(O)ccc2c1CCCC2C1=NCCN1 (stereo unspecified) | -5.72 ± 5.9 | -4.43 ± 0.14 | 1.89 | -2.6 ± 3.1 | 2.49 ± 1.5 | -0.663 ± 8.6 | 5.38 | -4.52 ± 7.4
5 | N[C@@H](C(=O)O)c1ccc(C(=O)O)c(C(=O)O)c1 | -12 ± 5.9 | -2.42 ± 2.5 | 0.444 | 0.256 ± 0.53 | 3.4 ± 0.51 | 4.51 ± 2.5 | 2.24 | -9.55 ± 5.8
6 | Cn1nnc2c(C(N)=O)ncn2c1=O [Temozolomide] | -3.16 ± 0.78 | 0.805 ± 3.2 | -3.73 | -1.01 ± 0.78 | 0.857 ± 0.3 | 2.66 ± 2.3 | -4.81 | -3.529 ± 0.011
7 | Nc1nc(NCCc2ccc(O)cc2)nc2nc(-c3ccco3)nn12 | -27.3 ± 21 | -9.77 ± 0.41 | -15.9 | -9.62 ± 9.3 | -7.12 ± 0.18 | -7.45 ± 12 | -36.7 | -23.687 ± 0.0089
8 | Clc1cccc(Cl)c1NC1=NCCN1 [Clonidine hydrochloride] | 1.72 ± 3.3 | 1.5 ± 4.7 | -1.72 | 0.368 ± 0.67 | -1.5 ± 1.3 | 4.55 ± 2.6 | -3.68 | -6.45 ± 2.9
9 | CC(C)CC(NC(=O)OCC1c2ccccc2-c2ccccc21)C(=O)O (stereo unspecified) | -5.28 ± 6.5 | 2.27 ± 4.2 | -1.25 | 0.99 ± 0.12 | 0.971 ± 0.52 | -3.09 ± 8.1 | 1.72 | -5.92 ± 6.2
10 | Nc1c2c(nc3ccccc13)CCCC2 [Tacrine hydrochloride] | -2.12 ± 2.4 | -8.77 ± 8.2 | -12.3 | -7.11 ± 9 | 1.78 ± 3.1 | -3.61 ± 6.7 | -14.2 | -8.59 ± 6.5
11 | N#Cc1c(O)c2c(-c3ccc(-c4ccccc4O)cc3)csc2[nH]c1=O | -4.9 ± 3 | 0.245 ± 3 | -7.47 | -3.04 ± 4.3 | 1.5 ± 0.09 | 2.95 ± 1.2 | -8.19 | -3.47 ± 1.1
12 | CC(=O)N1CCN(C)CC1 [1-Acetyl-4-methylpiperazine hydrochloride] | 11.4 ± 8.4 | -2.24 ± 3.1 | 2.35 | 3.6 ± 2.9 | 1.84 ± 1.8 | -4.29 ± 8.2 | 0.729 | -2.04 ± 3.4
13 | CC1=C(CC(=O)O)c2cc(F)ccc2/C1=C\c1ccc([S+](C)[O-])cc1 (stereo unspecified) [Sulindac] | 1.59 ± 5.8 | 0.105 ± 1.2 | -15 | -11.3 ± 6.7 | 7.44 ± 5.3 | -7.9 ± 13 | -18 | -4.89 ± 6.5
14 | NC(C(=O)O)c1ccc(C(=O)O)c(C(=O)O)c1 (racemic) | -11.7 ± 5.7 | -3.42 ± 1.3 | 0.433 | -4.21 ± 3.9 | 0.74 ± 1.8 | 2.85 ± 0.12 | -2.42 | -6.22 ± 3.6
15 | CO[C@@H]1[C@H](O)[C@@H](CO)O[C@H]1n1cnc2c(NC3CCCCC3)ncnc21 | -1.78 ± 4.9 | -2.01 ± 2.7 | -9.55 | -6.38 ± 7.8 | 2.13 ± 0.12 | -1.26 ± 6 | -14.6 | -4.94 ± 1.8
16 | Cc1nc2c(O)cccc2c(=O)[nH]1 | -9.06 ± 15 | -2.27 ± 0.16 | 0.114 | 0.677 ± 0.91 | 4.99 ± 5 | 4.29 ± 2.1 | 0.678 | -6.02 ± 2.8
17 | CC(=N)NCc1cccc(CN)c1 [1400W dihydrochloride] | -5.28 ± 14 | -3.3 ± 0.5 | -0.354 | 1.38 ± 1.6 | -1.73 ± 1.1 | 2.73 ± 2.1 | -1.47 | -8.31 ± 0.19
18 | NC1CCN(c2cccc(Cl)n2)CC1 | -0.931 ± 0.71 | -3.67 ± 3.1 | -12 | -0.707 ± 2.2 | 7 ± 2.8 | 2.78 ± 0.074 | -21.5 | -5.42 ± 2.5
19 | O=c1nc2ccccc2c2n1CC(CN1CCN(c3ccccc3)CC1)N2 (stereo unspecified) | -6.16 ± 6.1 | -11.9 ± 16 | -1.38 | -3.06 ± 5.2 | 0.807 ± 0.7 | -4.31 ± 6.2 | -8.43 | -7.35 ± 1.3
20 | NC(=O)N1c2ccccc2CC(O)c2ccccc21 (stereo unspecified) [Licarbazepine] | -16.2 ± 22 | -4.93 ± 3.1 | -0.311 | -0.578 ± 1.2 | 1.43 ± 1.1 | 3.78 ± 0.41 | 1.03 | -93.7 ± 140
21 | O=S(=O)(c1cccc2cnccc12)N1CCCNCC1 [Fasudil hydrochloride] | -5.11 ± 5.5 | 11.1 ± 12 | 1.87 | -0.00406 ± 0.72 | 3.95 ± 0.97 | -4.47 ± 8.5 | 5.34 | -3.19 ± 0.94
22 | N[C@@H](Cc1cc(CP(=O)(O)O)cc(-c2ccccc2Cl)c1)C(=O)O | -9.96 ± 16 | 0.915 ± 3.9 | 0.933 | 1.96 ± 2.7 | 1.07 ± 0.83 | 4.15 ± 1.9 | 1.96 | -7.39 ± 5.3

Copied from the list:
CC(=O)N1CCN(C)CC1 [1-Acetyl-4-methylpiperazine hydrochloride] – robust z cell number difference ([2]; siRNA: siScr): 3.6 ± 2.9
COC(=O)[C@H]1[C@H]2C[C@@H]3c4[nH]c5cc(OC)ccc5c4CCN3C[C@H]2C[C@@H](OC(=O)c2cc(OC)c(OC)c(OC)c2)[C@@H]1OC [Reserpine] – robust z score of cell number ([1]; siRNA: siRpgrip1l): -5.39 ± 7.3
